Sequences of proteins named here, by UniProt entry; tags and fusion partners are left off. A change or cut given only in a name is not applied to a line headed by its entry.
UniProt Q8WUR7: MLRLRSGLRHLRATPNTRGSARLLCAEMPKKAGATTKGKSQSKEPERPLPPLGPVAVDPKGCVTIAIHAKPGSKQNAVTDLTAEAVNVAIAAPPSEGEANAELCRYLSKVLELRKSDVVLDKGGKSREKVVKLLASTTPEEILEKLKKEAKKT
UniProt Q9HB71, whole entry, looked up: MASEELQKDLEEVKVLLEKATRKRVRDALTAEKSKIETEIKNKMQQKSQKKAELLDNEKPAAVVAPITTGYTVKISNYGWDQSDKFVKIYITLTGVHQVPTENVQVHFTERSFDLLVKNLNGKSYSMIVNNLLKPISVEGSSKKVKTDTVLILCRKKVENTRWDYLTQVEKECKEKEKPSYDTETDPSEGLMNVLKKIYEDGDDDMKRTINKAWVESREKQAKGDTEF
UniProt Q9HAS0: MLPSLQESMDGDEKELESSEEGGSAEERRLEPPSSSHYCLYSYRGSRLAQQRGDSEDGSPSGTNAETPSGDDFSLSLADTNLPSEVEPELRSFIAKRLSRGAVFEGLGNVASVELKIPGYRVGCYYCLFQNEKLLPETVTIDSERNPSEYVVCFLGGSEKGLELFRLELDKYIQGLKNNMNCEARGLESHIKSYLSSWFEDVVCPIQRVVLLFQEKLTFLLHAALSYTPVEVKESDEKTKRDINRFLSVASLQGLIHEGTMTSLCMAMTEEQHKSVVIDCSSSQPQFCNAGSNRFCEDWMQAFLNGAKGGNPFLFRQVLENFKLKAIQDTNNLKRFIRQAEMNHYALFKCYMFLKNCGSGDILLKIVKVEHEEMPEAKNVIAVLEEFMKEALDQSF
UniProt Q01518, whole entry, looked up: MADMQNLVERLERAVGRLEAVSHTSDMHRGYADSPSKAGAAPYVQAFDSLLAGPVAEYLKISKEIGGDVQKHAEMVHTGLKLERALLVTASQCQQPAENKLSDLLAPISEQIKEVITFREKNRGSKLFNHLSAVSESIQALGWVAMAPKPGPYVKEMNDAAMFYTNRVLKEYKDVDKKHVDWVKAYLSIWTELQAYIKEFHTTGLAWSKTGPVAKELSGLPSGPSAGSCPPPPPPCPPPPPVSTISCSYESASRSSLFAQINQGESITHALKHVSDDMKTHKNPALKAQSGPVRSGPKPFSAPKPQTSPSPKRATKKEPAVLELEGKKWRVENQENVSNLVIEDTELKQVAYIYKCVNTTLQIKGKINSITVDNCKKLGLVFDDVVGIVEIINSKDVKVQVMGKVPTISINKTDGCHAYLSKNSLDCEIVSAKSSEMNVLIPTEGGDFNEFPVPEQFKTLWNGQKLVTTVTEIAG
UniProt O75155: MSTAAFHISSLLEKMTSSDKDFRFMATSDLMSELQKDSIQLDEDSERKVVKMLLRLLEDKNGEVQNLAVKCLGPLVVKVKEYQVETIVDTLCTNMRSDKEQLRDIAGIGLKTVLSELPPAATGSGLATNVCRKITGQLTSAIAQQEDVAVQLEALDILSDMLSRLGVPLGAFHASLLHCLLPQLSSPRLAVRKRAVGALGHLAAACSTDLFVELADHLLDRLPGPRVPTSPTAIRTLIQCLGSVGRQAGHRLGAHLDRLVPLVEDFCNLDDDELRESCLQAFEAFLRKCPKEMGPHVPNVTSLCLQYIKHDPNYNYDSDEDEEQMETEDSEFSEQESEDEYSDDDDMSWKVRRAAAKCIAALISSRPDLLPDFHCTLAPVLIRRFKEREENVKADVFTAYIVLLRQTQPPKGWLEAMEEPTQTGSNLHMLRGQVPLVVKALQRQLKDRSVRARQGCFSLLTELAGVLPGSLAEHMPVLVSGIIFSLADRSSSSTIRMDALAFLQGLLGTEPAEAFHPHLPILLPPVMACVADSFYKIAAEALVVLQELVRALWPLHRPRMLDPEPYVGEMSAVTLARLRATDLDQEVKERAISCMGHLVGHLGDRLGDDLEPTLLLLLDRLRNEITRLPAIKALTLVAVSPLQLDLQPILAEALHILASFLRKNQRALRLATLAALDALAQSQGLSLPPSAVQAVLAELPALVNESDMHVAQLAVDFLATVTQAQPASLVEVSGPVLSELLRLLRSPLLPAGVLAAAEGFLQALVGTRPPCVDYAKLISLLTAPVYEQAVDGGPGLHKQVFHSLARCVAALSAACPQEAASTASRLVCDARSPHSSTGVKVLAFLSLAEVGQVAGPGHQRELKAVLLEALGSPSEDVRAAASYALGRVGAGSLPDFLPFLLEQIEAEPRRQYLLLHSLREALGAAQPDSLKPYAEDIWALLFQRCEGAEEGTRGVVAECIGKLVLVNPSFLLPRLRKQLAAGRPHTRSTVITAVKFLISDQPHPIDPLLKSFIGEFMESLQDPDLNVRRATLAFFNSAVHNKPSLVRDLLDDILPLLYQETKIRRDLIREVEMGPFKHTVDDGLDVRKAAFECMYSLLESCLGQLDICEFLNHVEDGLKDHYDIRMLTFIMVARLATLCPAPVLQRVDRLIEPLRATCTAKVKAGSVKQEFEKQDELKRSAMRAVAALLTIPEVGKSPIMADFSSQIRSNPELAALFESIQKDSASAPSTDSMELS
UniProt P07384: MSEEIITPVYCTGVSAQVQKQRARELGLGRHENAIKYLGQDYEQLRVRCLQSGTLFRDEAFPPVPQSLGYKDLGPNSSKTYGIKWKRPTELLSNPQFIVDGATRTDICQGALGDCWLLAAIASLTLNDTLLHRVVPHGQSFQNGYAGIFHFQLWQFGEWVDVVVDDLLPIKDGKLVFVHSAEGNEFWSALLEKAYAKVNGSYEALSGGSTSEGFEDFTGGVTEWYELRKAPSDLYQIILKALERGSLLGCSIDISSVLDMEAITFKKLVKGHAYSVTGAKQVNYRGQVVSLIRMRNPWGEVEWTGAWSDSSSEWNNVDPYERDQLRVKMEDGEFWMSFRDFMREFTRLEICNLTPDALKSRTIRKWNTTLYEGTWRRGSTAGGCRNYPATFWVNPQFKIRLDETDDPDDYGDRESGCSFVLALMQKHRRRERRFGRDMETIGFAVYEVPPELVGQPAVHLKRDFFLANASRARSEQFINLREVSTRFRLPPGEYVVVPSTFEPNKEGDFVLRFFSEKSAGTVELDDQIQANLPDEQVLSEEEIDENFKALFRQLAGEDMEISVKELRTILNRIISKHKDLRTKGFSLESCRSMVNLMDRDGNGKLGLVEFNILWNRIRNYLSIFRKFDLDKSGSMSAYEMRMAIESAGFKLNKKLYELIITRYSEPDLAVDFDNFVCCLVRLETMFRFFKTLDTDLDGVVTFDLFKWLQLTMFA
UniProt Q8N5I9: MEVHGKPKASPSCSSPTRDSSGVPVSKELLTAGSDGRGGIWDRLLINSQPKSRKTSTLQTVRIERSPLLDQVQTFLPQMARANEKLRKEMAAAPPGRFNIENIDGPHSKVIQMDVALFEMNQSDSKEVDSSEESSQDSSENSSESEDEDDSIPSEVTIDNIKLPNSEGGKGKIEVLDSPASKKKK
UniProt Q9NS00: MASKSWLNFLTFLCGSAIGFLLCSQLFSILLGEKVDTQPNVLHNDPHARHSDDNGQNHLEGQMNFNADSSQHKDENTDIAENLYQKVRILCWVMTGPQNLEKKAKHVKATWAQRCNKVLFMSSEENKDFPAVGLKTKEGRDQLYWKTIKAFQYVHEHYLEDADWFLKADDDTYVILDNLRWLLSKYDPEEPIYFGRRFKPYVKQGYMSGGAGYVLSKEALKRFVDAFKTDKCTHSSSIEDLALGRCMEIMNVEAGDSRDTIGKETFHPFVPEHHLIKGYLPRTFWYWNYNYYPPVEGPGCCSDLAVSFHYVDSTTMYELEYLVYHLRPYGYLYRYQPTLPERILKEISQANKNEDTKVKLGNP
UniProt Q8N8R5: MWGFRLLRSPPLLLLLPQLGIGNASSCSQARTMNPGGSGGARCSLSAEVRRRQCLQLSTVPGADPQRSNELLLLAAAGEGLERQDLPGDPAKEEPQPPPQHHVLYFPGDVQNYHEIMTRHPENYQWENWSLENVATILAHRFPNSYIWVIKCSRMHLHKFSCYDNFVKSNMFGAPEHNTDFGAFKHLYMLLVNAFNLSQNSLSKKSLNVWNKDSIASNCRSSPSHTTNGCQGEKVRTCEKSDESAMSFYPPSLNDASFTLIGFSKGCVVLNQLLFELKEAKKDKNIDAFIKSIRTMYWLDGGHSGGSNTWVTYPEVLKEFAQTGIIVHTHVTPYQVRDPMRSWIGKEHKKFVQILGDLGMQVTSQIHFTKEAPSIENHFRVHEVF
UniProt Q86YS7: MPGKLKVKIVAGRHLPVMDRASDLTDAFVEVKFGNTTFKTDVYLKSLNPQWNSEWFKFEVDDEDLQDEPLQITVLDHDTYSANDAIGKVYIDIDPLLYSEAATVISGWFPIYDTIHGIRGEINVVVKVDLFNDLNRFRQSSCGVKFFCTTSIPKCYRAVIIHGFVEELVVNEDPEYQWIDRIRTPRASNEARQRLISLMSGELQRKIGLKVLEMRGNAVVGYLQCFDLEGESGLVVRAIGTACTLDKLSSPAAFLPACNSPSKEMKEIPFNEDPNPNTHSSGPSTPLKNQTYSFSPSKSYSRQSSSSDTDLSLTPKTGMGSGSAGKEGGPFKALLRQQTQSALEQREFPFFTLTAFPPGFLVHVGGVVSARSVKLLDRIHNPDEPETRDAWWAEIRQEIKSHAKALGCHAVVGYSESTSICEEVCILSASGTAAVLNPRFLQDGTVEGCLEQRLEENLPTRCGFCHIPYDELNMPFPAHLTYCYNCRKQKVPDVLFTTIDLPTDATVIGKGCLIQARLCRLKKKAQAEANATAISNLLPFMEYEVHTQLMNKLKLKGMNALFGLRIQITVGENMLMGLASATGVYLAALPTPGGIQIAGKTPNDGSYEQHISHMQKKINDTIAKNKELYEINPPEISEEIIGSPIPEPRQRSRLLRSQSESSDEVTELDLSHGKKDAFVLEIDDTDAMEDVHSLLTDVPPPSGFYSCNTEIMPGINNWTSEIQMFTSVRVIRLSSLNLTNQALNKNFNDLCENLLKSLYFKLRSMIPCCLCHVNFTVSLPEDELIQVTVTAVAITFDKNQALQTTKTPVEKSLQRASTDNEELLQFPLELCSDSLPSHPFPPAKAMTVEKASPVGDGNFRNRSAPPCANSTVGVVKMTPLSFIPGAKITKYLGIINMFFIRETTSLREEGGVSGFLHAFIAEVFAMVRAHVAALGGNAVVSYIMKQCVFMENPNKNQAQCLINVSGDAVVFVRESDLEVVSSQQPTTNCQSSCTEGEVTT
UniProt Q9Y2G2: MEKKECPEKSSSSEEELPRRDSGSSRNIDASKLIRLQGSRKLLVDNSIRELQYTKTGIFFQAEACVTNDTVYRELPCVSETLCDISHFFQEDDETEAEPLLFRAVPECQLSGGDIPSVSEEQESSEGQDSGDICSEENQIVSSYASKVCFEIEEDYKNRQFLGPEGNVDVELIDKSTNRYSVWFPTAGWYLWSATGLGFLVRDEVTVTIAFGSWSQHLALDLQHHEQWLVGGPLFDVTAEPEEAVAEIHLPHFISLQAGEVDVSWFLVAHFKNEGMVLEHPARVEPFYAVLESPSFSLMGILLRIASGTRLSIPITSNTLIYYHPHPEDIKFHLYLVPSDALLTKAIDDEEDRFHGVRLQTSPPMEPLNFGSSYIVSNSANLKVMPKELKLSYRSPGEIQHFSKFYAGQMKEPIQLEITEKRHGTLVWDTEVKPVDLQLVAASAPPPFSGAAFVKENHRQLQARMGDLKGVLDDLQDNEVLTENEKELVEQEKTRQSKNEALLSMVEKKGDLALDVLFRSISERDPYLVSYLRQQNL
UniProt Q9Y6W3: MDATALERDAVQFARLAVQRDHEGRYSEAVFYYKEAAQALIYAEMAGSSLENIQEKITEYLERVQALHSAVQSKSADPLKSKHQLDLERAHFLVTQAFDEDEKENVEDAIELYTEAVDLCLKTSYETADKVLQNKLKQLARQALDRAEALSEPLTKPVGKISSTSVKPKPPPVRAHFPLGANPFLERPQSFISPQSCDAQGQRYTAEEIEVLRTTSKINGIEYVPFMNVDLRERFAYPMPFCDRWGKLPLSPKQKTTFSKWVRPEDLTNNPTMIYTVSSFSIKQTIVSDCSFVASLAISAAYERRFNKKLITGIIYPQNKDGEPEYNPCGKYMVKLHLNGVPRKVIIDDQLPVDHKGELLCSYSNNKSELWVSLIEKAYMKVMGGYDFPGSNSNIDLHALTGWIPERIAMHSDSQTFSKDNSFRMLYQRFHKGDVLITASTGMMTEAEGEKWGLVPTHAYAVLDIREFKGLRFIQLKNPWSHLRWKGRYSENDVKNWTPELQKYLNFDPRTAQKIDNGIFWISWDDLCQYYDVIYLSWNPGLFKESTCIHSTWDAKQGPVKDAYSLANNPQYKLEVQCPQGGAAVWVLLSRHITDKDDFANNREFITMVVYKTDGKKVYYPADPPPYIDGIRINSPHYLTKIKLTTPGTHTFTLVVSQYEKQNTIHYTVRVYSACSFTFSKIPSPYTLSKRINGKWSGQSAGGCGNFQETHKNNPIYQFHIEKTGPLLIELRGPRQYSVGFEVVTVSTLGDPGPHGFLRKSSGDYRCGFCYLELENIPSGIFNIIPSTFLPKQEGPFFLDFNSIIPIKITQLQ

Some of the results follow.
Each target was assayed with CC[C@@H]1C(=O)N(C)c2cnc(Nc3ccc(C(=O)N[C@H]4CC[C@H](N5CCN(CC6CC6)CC5)CC4)cc3OC)nc2N1C(C)C [volasertib] (assay: log2 fold change, soluble protein after heating vs DMSO (PISA); higher = thermal stabilisation; K562 cells, 10 uM, 30 min; active = over 0.2 and 3.5 SD of the protein, either way, in both replicates (recomputed)).
In short: (§1)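 Aliquots of K562 cells (2×10^6 cells/mL) treated with 10 μM compound for 30 min were heated for 3 min over 48°C-58°C. After pooling and extraction in PBS with 0.5% NP-40 at 4°C, soluble protein from a 21,000xg, 90 min spin was quantified by TMTpro 16plex LC-MS/MS with channel sums equalised. Thermal stability is expressed against control samples, from duplicates, as a log2 fold change.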
With C15orf40 (UniProt Q8WUR7) the log2 fold change was inactive: 0.076. With CACYBP (UniProt Q9HB71) the log2 fold change was inactive: 0.024. With CAPG (UniProt P40121) the log2 fold change was inactive: -0.046. With C17orf80 (UniProt Q9BSJ5) the log2 fold change was inactive: -0.038. With C1orf52 (UniProt Q8N6N3) the log2 fold change was inactive: 0.077. For BTN2A1 (UniProt Q7KYR7), the log2 fold change was inactive: -0.021. With C11orf98 (UniProt E9PRG8) the log2 fold change was inactive: 0.401.

Each target was assayed with CC[C@H](C)N1C=C(C2=C(C=C(C=C21)C3=CN=C(C=C3)N4CCNCC4)C(=O)NCC5=C(C=C(NC5=O)C)C)C in the same assay as above.
In short: as §1
With C1QBP (UniProt Q07021) the log2 fold change was inactive: 0.017. For BUB1 (UniProt O43683), the log2 fold change was inactive: -0.123. With C6orf47 (UniProt O95873) the log2 fold change was inactive: -0.023. For C2orf49 (UniProt Q9BVC5), the log2 fold change was inactive: 0.002. In the case of C17orf75 (UniProt Q9HAS0), the log2 fold change is reported as inactive: 0.015. In the case of CAP1 (UniProt Q01518), the log2 fold change is reported as inactive: 0.005. In the case of CAND2 (UniProt O75155), the log2 fold change is reported as inactive: -0.05. C8orf76 (UniProt Q96K31) was tested, and the log2 fold change was inactive: 0.028. With CAPN1 (UniProt P07384) the log2 fold change was inactive: -0.048. With CAPZB (UniProt P47756) the log2 fold change was inactive: -0.002. With BTF3L4 (UniProt Q96K17) the log2 fold change was inactive: -0.033. C12orf45 (UniProt Q8N5I9) was tested, and the log2 fold change was inactive: -0.032. For C1GALT1 (UniProt Q9NS00), the log2 fold change was inactive: 0.004. For C2orf69 (UniProt Q8N8R5), the log2 fold change was inactive: -0.002. With C5orf22 (UniProt Q49AR2) the log2 fold change was inactive: 0.031. For C2CD5 isoform 4 (UniProt Q86YS7), the log2 fold change was inactive: -0.124. In the case of C3orf33 (UniProt Q6P1S2), the log2 fold change is reported as inactive: 0.161. In the case of C1orf198 (UniProt Q9H425), the log2 fold change is reported as inactive: 0.012. CARD8 isoform 5 (UniProt Q9Y2G2) was tested, and the log2 fold change was inactive: 0.119. With C1orf131 isoform 5 (UniProt Q8NDD1) the log2 fold change was inactive: -0.016. C3 (UniProt P01024) was tested, and the log2 fold change was inactive: -0.084. C1GALT1C1 (UniProt Q96EU7) was tested, and the log2 fold change was inactive: 0.041. In the case of CAPN7 (UniProt Q9Y6W3), the log2 fold change is reported as inactive: 0.078. C15orf40 (UniProt Q8WUR7) was tested, and the log2 fold change was inactive: 0.042. In the case of CACYBP (UniProt Q9HB71), the log2 fold change is reported as inactive: 0.013. In the case of CAPG (UniProt P40121), the log2 fold change is reported as inactive: 0.064. With C17orf80 (UniProt Q9BSJ5) the log2 fold change was inactive: -0.14. With C1orf52 (UniProt Q8N6N3) the log2 fold change was inactive: -0.055. For BTN2A1 (UniProt Q7KYR7), the log2 fold change was inactive: -0.028. With C11orf98 (UniProt E9PRG8) the log2 fold change was inactive: 0.005.

The targets below were run with CC[C@H](C)[C@@H](C(=O)N[C@@H]([C@@H](C)O)C(=O)N[C@@H](CC(C)C)C(=O)[C@]1(CO1)C)NC(=O)[C@H]([C@@H](C)CC)N(C)C(=O)C [epoxomicin] in the same assay as above.
In short: as §1
For C1QBP (UniProt Q07021), the log2 fold change was inactive: 0.007. With BUB1 (UniProt O43683) the log2 fold change was inactive: 0.021. C6orf47 (UniProt O95873) was tested, and the log2 fold change was inactive: -0.038. In the case of C2orf49 (UniProt Q9BVC5), the log2 fold change is reported as inactive: -0.189. C17orf75 (UniProt Q9HAS0) was tested, and the log2 fold change was inactive: -0.071. CAP1 (UniProt Q01518) was tested, and the log2 fold change was inactive: 0.018. With CAND2 (UniProt O75155) the log2 fold change was inactive: 0.028. In the case of C8orf76 (UniProt Q96K31), the log2 fold change is reported as inactive: 0.011. In the case of CAPN1 (UniProt P07384), the log2 fold change is reported as inactive: 0.037. In the case of CAPZB (UniProt P47756), the log2 fold change is reported as inactive: 0.002. In the case of BTF3L4 (UniProt Q96K17), the log2 fold change is reported as inactive: -0.018. With C12orf45 (UniProt Q8N5I9) the log2 fold change was inactive: 0.039. C1GALT1 (UniProt Q9NS00) was tested, and the log2 fold change was inactive: -0.045. C2orf69 (UniProt Q8N8R5) was tested, and the log2 fold change was inactive: -0.036. C5orf22 (UniProt Q49AR2) was tested, and the log2 fold change was inactive: 0.107. C2CD5 isoform 4 (UniProt Q86YS7) was tested, and the log2 fold change was inactive: 0.054. In the case of C3orf33 (UniProt Q6P1S2), the log2 fold change is reported as inactive: 0.152. In the case of C1orf198 (UniProt Q9H425), the log2 fold change is reported as inactive: 0.133. In the case of CARD8 isoform 5 (UniProt Q9Y2G2), the log2 fold change is reported as inactive: -0.002. For C1orf131 isoform 5 (UniProt Q8NDD1), the log2 fold change was inactive: -0.242. With C3 (UniProt P01024) the log2 fold change was inactive: -0.393. For C1GALT1C1 (UniProt Q96EU7), the log2 fold change was inactive: 0.011. CAPN7 (UniProt Q9Y6W3) was tested, and the log2 fold change was inactive: 0.012. With C15orf40 (UniProt Q8WUR7) the log2 fold change was inactive: -0.063. With CACYBP (UniProt Q9HB71) the log2 fold change was inactive: 0.008. With CAPG (UniProt P40121) the log2 fold change was inactive: 0.041. C17orf80 (UniProt Q9BSJ5) was tested, and the log2 fold change was inactive: -0.167. C1orf52 (UniProt Q8N6N3) was tested, and the log2 fold change was inactive: -0.007. For BTN2A1 (UniProt Q7KYR7), the log2 fold change was inactive: 0.024. For C11orf98 (UniProt E9PRG8), the log2 fold change was inactive: -0.269.

The targets below were run with CCn1c(C(=O)N(C2CC2)C2CC2)cc2c3c(ncn3C)c(Nc3cc(C)n(C)n3)nc21 in the same assay as above.
In short: as §1
C1QBP (UniProt Q07021) was tested, and the log2 fold change was inactive: 0.023. BUB1 (UniProt O43683) was tested, and the log2 fold change was inactive: -0.071. In the case of C6orf47 (UniProt O95873), the log2 fold change is reported as inactive: -0.006. C2orf49 (UniProt Q9BVC5) was tested, and the log2 fold change was inactive: -0.079. C17orf75 (UniProt Q9HAS0) was tested, and the log2 fold change was inactive: -0.016. CAP1 (UniProt Q01518) was tested, and the log2 fold change was inactive: 0.014. CAND2 (UniProt O75155) was tested, and the log2 fold change was inactive: 0.047. With C8orf76 (UniProt Q96K31) the log2 fold change was inactive: 0.015. CAPN1 (UniProt P07384) was tested, and the log2 fold change was inactive: -0.005. With CAPZB (UniProt P47756) the log2 fold change was inactive: 0.005. For BTF3L4 (UniProt Q96K17), the log2 fold change was inactive: -0.019. For C12orf45 (UniProt Q8N5I9), the log2 fold change was inactive: 0.002. In the case of C1GALT1 (UniProt Q9NS00), the log2 fold change is reported as inactive: -0.039. For C2orf69 (UniProt Q8N8R5), the log2 fold change was inactive: 0.022. With C5orf22 (UniProt Q49AR2) the log2 fold change was inactive: -0.061. In the case of C2CD5 isoform 4 (UniProt Q86YS7), the log2 fold change is reported as inactive: -0.089. In the case of C3orf33 (UniProt Q6P1S2), the log2 fold change is reported as inactive: -0.04. In the case of C1orf198 (UniProt Q9H425), the log2 fold change is reported as inactive: -0.04. CARD8 isoform 5 (UniProt Q9Y2G2) was tested, and the log2 fold change was inactive: 0.033. In the case of C1orf131 isoform 5 (UniProt Q8NDD1), the log2 fold change is reported as inactive: 0.027. C3 (UniProt P01024) was tested, and the log2 fold change was inactive: 0.097. In the case of C1GALT1C1 (UniProt Q96EU7), the log2 fold change is reported as inactive: 0.001. For CAPN7 (UniProt Q9Y6W3), the log2 fold change was inactive: -0.043. For C15orf40 (UniProt Q8WUR7), the log2 fold change was inactive: -0.063. With CACYBP (UniProt Q9HB71) the log2 fold change was inactive: -0.006. CAPG (UniProt P40121) was tested, and the log2 fold change was inactive: -0.01. With C17orf80 (UniProt Q9BSJ5) the log2 fold change was inactive: 0.001. In the case of C1orf52 (UniProt Q8N6N3), the log2 fold change is reported as inactive: 0.023. BTN2A1 (UniProt Q7KYR7) was tested, and the log2 fold change was inactive: -0.129. With C11orf98 (UniProt E9PRG8) the log2 fold change was inactive: -0.017.
